Laboratory results reported in article PMC6896067.
Results are given in words; binding and its absence hold for the method and conditions named. Binding seen in cells or lysates may run through a third protein. Some entries that bind do so weakly or less than the wild type.

Amino acid sequences for entries named in this document (tags omitted).
UniProt P51532: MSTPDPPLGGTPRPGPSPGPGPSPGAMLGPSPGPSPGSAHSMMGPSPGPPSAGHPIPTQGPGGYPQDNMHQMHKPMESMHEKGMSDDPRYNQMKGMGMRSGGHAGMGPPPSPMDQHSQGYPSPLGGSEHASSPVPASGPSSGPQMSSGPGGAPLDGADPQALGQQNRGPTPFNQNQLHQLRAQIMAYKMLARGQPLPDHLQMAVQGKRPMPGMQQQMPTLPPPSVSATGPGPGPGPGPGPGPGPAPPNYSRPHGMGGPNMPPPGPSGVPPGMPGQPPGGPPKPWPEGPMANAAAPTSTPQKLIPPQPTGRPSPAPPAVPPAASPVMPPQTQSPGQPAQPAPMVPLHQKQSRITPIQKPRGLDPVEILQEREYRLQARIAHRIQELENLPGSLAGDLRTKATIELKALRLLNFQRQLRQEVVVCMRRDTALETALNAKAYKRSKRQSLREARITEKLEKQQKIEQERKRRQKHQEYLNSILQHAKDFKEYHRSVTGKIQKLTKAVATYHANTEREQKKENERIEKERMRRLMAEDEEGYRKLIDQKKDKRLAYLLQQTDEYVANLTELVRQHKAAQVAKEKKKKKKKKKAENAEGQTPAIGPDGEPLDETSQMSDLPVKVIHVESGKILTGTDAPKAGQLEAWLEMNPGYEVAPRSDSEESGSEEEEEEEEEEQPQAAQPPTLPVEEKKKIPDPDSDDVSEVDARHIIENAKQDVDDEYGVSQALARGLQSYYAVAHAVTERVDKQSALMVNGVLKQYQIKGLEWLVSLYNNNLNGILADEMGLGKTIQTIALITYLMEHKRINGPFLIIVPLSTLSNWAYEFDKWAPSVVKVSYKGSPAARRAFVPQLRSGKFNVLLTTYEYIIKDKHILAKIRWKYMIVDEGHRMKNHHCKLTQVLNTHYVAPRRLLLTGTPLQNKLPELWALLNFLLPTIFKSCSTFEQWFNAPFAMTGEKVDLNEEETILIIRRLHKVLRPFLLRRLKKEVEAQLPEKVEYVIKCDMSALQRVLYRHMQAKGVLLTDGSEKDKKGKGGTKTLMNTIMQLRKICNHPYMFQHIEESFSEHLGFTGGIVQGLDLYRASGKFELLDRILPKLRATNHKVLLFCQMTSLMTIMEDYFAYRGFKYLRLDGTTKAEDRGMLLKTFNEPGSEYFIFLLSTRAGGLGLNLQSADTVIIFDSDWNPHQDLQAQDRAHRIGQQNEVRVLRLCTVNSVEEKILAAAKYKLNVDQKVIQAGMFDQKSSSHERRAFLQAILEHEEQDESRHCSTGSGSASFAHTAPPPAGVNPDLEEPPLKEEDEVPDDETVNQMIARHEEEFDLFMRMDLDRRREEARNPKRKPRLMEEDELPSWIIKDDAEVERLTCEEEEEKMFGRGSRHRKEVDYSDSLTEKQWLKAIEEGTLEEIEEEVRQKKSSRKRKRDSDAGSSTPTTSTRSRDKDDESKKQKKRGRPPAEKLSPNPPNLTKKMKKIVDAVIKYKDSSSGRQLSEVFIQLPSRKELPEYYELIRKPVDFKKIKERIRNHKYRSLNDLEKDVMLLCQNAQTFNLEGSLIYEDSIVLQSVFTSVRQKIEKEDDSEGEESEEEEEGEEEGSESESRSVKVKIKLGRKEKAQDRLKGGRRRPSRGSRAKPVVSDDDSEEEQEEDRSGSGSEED
UniProt Q9H8M2: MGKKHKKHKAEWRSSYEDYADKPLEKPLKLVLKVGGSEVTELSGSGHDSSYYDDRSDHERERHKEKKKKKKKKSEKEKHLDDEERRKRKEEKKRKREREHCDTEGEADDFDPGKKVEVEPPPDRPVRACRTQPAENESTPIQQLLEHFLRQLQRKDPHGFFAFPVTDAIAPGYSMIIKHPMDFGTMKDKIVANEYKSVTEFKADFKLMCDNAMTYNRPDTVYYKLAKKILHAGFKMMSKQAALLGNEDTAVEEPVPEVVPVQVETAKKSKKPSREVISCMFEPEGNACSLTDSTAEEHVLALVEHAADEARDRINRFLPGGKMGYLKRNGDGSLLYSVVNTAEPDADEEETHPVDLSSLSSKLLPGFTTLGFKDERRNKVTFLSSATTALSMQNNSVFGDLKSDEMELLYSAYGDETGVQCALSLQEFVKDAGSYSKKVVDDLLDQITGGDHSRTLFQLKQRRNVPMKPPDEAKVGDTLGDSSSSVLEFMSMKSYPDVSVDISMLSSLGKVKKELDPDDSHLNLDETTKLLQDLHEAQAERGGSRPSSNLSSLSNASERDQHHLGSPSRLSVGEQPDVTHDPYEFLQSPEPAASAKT

Assays:
[1] = molecular target: BRG1, ATPase subunit of the SWI-SNF chromatin-remodeling complex (human (endogenous in MCF-10A)) (UniProt P51532); experiment: co-IP; 1 ug anti-BRG1 (Santa Cruz sc-17796) or control IgG with ~1 mg nuclear extract overnight at 4 °C, Protein G Sepharose; washes with Tris pH 7.4, 300 mM NaCl, 0.5 % NP-40; immunoblot for BRG1 and BRD9; MCF-10A wild type and mutant cells, or DKI cells transduced with lenti-BRD9
[2] = molecular target: bromodomain-containing protein 9 (BRD9) (human (endogenous in MCF-10A)) (UniProt Q9H8M2); experiment: co-IP; precipitation of endogenous BRD9, BRG1 detected (Figure S9); conditions not shown

| binding [1] | binding [2] | Substance |
| --- | --- | --- |
| binds |  | bromodomain-containing protein 9 (BRD9) (from UniProt Q9H8M2 1-597) |
| binds |  | BRD9 overexpressed from lenti-BRD9-Puro (from UniProt Q9H8M2 1-597) |
|  | binds | BRG1, ATPase subunit of the SWI-SNF chromatin-remodeling complex (from UniProt P51532 1-1647) |
